From paper PMC4703368, “A Conserved Interaction between a C-Terminal Motif in Norovirus VPg and the HEAT-1 Domain of eIF4G Is Essential for Translation Initiation” (PLoS Pathogens, 2016)
No constants are given. Whether binding was seen depends on the method and setting. In cells and extracts the contact can be indirect. Some binding calls cover weakened binding; strength is not graded here.

By UniProt entry, the sequences of proteins in these tests, tags left out.
UniProt Q6NZJ6: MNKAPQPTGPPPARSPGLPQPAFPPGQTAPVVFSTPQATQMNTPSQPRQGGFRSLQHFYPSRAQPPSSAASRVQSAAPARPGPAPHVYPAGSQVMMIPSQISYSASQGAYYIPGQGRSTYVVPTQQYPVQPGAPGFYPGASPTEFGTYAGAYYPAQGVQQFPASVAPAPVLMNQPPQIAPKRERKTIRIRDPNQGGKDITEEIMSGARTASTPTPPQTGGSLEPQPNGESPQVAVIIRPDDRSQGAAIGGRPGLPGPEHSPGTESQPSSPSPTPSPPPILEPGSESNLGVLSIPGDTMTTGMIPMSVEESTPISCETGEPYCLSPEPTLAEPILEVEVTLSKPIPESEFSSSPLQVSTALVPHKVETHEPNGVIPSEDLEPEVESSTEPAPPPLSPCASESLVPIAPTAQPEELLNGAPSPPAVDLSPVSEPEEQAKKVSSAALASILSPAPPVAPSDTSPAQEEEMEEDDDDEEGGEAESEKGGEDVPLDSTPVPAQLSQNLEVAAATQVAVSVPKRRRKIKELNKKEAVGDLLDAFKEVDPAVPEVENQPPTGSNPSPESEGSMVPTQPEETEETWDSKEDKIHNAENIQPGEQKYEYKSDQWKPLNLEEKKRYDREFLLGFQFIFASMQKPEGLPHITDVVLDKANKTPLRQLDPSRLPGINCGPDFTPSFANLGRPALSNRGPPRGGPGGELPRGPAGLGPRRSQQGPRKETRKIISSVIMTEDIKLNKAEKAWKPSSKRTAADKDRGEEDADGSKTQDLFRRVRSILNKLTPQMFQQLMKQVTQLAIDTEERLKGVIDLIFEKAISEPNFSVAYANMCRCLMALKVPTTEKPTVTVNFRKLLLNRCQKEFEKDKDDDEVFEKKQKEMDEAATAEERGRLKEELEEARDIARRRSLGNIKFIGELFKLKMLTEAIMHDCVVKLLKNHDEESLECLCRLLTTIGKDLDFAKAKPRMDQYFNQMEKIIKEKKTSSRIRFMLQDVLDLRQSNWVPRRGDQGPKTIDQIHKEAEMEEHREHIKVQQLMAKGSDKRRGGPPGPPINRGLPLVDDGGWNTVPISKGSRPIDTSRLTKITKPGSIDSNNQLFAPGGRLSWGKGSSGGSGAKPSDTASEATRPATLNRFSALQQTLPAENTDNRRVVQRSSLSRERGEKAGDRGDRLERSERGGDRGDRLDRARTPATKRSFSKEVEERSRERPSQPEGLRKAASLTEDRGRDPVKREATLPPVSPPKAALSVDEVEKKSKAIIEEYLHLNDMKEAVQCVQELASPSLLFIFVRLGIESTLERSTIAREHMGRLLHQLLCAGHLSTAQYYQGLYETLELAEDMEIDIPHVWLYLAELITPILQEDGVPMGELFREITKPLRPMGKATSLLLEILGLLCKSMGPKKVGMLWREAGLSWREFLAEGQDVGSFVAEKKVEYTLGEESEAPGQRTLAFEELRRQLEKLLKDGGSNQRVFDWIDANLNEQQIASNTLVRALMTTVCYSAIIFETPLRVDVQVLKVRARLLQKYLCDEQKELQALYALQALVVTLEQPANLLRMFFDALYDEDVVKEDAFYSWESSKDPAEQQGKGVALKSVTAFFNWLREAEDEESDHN
UniProt P29341: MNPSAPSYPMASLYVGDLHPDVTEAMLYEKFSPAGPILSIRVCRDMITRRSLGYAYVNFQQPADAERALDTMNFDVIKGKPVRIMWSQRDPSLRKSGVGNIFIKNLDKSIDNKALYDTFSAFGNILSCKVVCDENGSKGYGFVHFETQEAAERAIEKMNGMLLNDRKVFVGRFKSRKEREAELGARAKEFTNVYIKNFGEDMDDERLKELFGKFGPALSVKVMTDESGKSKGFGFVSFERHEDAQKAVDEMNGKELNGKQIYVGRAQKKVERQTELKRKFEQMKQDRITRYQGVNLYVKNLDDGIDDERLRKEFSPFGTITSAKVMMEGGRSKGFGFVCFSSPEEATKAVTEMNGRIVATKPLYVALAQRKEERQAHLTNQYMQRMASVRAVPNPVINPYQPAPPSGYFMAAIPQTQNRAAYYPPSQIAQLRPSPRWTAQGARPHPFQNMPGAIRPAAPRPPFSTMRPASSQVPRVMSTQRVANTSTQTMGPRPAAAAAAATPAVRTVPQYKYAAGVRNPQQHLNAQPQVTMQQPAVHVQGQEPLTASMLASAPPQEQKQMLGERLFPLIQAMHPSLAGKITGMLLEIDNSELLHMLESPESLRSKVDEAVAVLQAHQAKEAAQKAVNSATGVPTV
UniProt P63073: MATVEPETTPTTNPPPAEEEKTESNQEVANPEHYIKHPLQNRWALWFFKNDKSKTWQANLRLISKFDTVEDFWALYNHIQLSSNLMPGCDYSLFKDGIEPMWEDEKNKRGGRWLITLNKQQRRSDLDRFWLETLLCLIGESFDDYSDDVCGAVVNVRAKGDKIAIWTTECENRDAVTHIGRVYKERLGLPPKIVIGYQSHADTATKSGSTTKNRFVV
UniProt O70194: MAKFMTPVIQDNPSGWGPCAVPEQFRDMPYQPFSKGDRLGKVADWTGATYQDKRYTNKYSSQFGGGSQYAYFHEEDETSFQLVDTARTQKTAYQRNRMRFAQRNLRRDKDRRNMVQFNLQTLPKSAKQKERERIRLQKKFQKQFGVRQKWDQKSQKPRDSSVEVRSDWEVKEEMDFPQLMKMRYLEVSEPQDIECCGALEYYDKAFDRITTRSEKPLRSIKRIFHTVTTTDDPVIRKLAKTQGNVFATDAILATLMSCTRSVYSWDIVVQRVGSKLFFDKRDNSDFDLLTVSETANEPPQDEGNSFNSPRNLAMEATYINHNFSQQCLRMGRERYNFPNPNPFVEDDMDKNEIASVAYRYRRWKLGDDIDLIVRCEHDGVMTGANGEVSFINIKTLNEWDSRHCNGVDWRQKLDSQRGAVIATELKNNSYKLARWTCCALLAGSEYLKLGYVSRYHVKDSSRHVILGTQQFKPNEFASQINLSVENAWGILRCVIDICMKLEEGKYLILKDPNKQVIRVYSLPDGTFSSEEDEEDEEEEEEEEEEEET
UniProt P60843: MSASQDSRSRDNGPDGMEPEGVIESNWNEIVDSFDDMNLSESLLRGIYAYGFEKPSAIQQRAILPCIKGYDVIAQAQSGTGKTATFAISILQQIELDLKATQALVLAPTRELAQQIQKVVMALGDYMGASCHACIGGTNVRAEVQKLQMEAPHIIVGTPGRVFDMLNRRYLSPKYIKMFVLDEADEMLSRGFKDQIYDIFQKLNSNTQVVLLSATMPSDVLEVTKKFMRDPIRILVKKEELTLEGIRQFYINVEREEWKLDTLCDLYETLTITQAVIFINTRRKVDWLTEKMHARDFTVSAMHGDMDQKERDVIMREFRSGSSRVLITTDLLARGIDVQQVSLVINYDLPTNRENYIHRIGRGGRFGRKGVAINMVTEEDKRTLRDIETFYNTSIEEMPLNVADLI

These substances were tested against mCherry-MNV VPg(102–124) WT (murine norovirus (MNV1)) (assay: co-IP; RFP-Trap_A agarose beads on lysates of transduced BV2 cells (10 mM Tris-HCl pH 7.5, 150 mM NaCl, 0.5% NP40, 0.5 mM EDTA), 2 h at 4°C; western blot).
For “eIF4G (endogenous, BV2 cells) (from UniProt Q6NZJ6 1-1600)”, the binding was “binds”. “PABP (endogenous, BV2 cells) (from UniProt P29341 1-636)” was tested, and the binding was “binds”. In the case of “eIF4E (endogenous, BV2 cells) (from UniProt P63073 1-217)”, the binding is reported as “binds”. For “eIF3D (endogenous, BV2 cells) (from UniProt O70194 1-548)”, the binding was “binds”. For “eIF4A (endogenous, BV2 cells) (from UniProt P60843 1-406)”, the binding was “binds”.
